Eight molecules from the supplement of paper PMC4604168 (melanoma cell lines) can be followed below.

Some of the results follow. Many values rest on one well or one pass, so single values are uncertain.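 The apoptosis fraction was the count of cleaved-PARP antibody-stained nuclei relative to all DNA-stained nuclei, imaged in 1,536-well plates. Screening doses were set so most cells survived, and baseline and induced cleaved-PARP levels vary greatly across cell lines.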

Among the test systems are MZ2-MEL; MeWo; RPMI7951; RVH-421; SkMel28; SkMel2; SkMel30; SkMel5; UACC257; UACC62.
Common to all, as to assay: cleaved PARP positive nuclei fraction relative to DMSO control; melanoma cells; higher = more apoptosis
What all share (settings): library dose: low library concentration; 72 h

Consider `C[C@]1(O)C[C@@H](c2nc(-c3ccc4ccc(-c5ccccc5)nc4c3)c3c(N)nccn32)C1` + O=C(Nc1ccccc1)c1cc([N+](=O)[O-])ccc1Cl [GW9662] (first compound 0.4 µM, partner dose 2 µM), for which the “cleaved PARP positive nuclei fraction” value with MZ2-MEL is 159%; in the experiment on MeWo, 50.3%; in the experiment with RPMI7951, 73.7%; with RVH-421, 66.3%; with SkMel28, 194%; in the experiment on SkMel2, 75%. In addition, the “cleaved PARP positive nuclei fraction” value came to 31.7% in the experiment with SkMel30, 88.3% in the experiment with SkMel5, 210% in the experiment with UACC257 and 151% in the experiment with UACC62.

Regarding `CC(=O)O[C@@]12CO[C@@H]1C[C@H](O)[C@@]1(C)C(=O)[C@H](O)C3=C(C)[C@@H](OC(=O)[C@H](O)[C@@H](NC(=O)OC(C)(C)C)c4ccccc4)C[C@@](O)([C@@H](OC(=O)c4ccccc4)[C@H]21)C3(C)C` [Docetaxel] + Oc1cc(-c2nc(-c3ccccc3)[nH]c2-c2ccncc2)ccc1Cl [L779450] (first compound 0.0001 µM, partner dose 0.2 µM), the “cleaved PARP positive nuclei fraction” value was found to be 292% with MZ2-MEL; 565% in the experiment with MeWo; 302% with RPMI7951; 92.9% in the experiment on RVH-421; 521% in the experiment on SkMel28; 341% in the experiment on SkMel2. Also, the “cleaved PARP positive nuclei fraction” value is 220% in the experiment on SkMel30, 379% in the experiment on SkMel5, 499% in the experiment on UACC257 and 614% in the experiment with UACC62.

For the molecule `C[C@@H](N)c1ccc(C(=O)Nc2ccnc3[nH]ccc23)cc1` + COc1ccc2c(c1)CCC1C2CCC2(C)C(NCCCCCCN3C(=O)C=CC3=O)CCC12 [U73122] (first compound 0.4 µM, partner dose 0.4 µM), the “cleaved PARP positive nuclei fraction” value was 90.2% in the experiment with MZ2-MEL; 126% in the experiment with MeWo; 34.5% in the experiment with RPMI7951; 130% in the experiment on RVH-421; 109% in the experiment with SkMel28; 107% with SkMel2. Further, the “cleaved PARP positive nuclei fraction” value is 31.1% in the experiment with SkMel30, 77.6% in the experiment with SkMel5, 162% in the experiment with UACC257 and 176% in the experiment on UACC62.

As to `NC1(c2ccc(-c3nc4ccn5c(=O)[nH]nc5c4cc3-c3ccccc3)cc2)CCC1` + OCCn1cc(-c2cnc3nnn(Cc4ccc5ncccc5c4)c3n2)cn1 [PF04217903] (first compound 0.4 µM, partner dose 1 µM), the “cleaved PARP positive nuclei fraction” value in the experiment with MZ2-MEL amounted to 99.9%; with MeWo, 81.8%; in the experiment on RPMI7951, 206%; with RVH-421, 96.8%; with SkMel28 it was 174%; with SkMel2, 39.5%. In addition, the “cleaved PARP positive nuclei fraction” value with SkMel30 was determined as 281%; in the experiment with SkMel5, 166%; with UACC257 it was 71.2%; in the experiment with UACC62 it was 106%.

`NC1(c2ccc(-c3nc4ccn5c(=O)[nH]nc5c4cc3-c3ccccc3)cc2)CCC1` + O=C(O)C(=O)Nc1sc2c(c1C(=O)O)CCNC2 [TCS401] (first compound 0.4 µM, partner dose 1.66667 µM): the “cleaved PARP positive nuclei fraction” value is 180% in the experiment on MZ2-MEL; 70.7% in the experiment on MeWo; 90.7% with RPMI7951; 136% in the experiment with RVH-421; 262% in the experiment on SkMel28; 59% in the experiment with SkMel2. In addition, the “cleaved PARP positive nuclei fraction” value in the experiment with SkMel30 was determined as 48.6%; in the experiment with SkMel5, 172%; in the experiment with UACC257, 153%; in the experiment on UACC62 it was 193%.

As for `CCN(CC)CCNC(=O)c1c(C)[nH]c(/C=C2\C(=O)Nc3ccc(F)cc32)c1C` [sunitinib] + O=C(O)c1ccc(-c2c[nH]c3ncc(-c4ccccc4)cc23)cc1C1CCCC1 [GSK650394] (first compound 0.4 µM, partner dose 0.16 µM), the “cleaved PARP positive nuclei fraction” value in the experiment with MZ2-MEL is 55.3%; with MeWo, 130%; in the experiment with RPMI7951, 115%; in the experiment with RVH-421 it was 88.6%; with SkMel28, 91.6%; with SkMel2, 90.8%. Besides, the “cleaved PARP positive nuclei fraction” value is 169% in the experiment on SkMel30, 35% with SkMel5, 86.8% in the experiment with UACC257 and 95.5% with UACC62.

As to `CC1(C)CCC(c2ccc(Cl)cc2)=C(CN2CCN(c3ccc(C(=O)NS(=O)(=O)c4ccc(N[C@H](CCN5CCOCC5)CSc5ccccc5)c(S(=O)(=O)C(F)(F)F)c4)cc3)CC2)C1` + Oc1nc(-c2ccc(C(F)(F)F)cc2)nc2c1CSCC2 [XAV939] (first compound 0.4 µM, partner dose 2 µM), the “cleaved PARP positive nuclei fraction” value with MZ2-MEL was found to be 180%; in the experiment on MeWo, 298%; in the experiment with RPMI7951, 92.2%; with RVH-421 it was 52.1%; in the experiment on SkMel28, 39.4%; with SkMel2, 175%. Also, the “cleaved PARP positive nuclei fraction” value was 335% in the experiment on SkMel30, 340% with SkMel5, 131% with UACC257 and 113% in the experiment on UACC62.

For `CC1(C)CCC(c2ccc(Cl)cc2)=C(CN2CCN(c3ccc(C(=O)NS(=O)(=O)c4ccc(N[C@H](CCN5CCOCC5)CSc5ccccc5)c(S(=O)(=O)C(F)(F)F)c4)cc3)CC2)C1` + O=C(Nc1ccccc1)c1cc([N+](=O)[O-])ccc1Cl [GW9662] (first compound 0.4 µM, partner dose 2 µM), the “cleaved PARP positive nuclei fraction” value in the experiment on MZ2-MEL was 253%; in the experiment on MeWo, 644%; in the experiment with RPMI7951, 339%; with RVH-421, 163%; in the experiment on SkMel28, 80.8%; with SkMel2 it was 103%. Moreover, the “cleaved PARP positive nuclei fraction” value in the experiment on SkMel30 was 48.2%; in the experiment with SkMel5 it was 114%; with UACC257 it was 55.5%; with UACC62, 193%.
